{"source": "PubChem BioAssay AID1471", "about": "(National Center for Advancing Translational Sciences (NCATS), 2008)", "note": "Out of some 230,000 compounds screened, about 310 (0.13%) were called active. This list was built around the results that the source calls inconclusive (neither active nor inactive); the mix of calls is not that of the screen. Calls come from the whole dose curve; as a rule, active = well fitted activation curve with a large enough effect; inconclusive = small, poorly fitted or top-dose-only effect; inactive = no such curve, though single readings can be large or run the other way. Where the call is inconclusive, the potency comes from a doubtful curve fit. Potency is the fitted concentration of half-maximal effect.", "data": [{"test": "qHTS Multiplex Assay to Identify Dual Action Probes in a Cell Model of Huntington: Cytoprotection (ATP); note: nearly all actives have a fitted effect of over 45% in size;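 for cytoprotection (ATP increase): toxic huntingtin expression switched on by the ecdysone agonist tebufenozide; % of control where 0% means no effect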", "conditions": "PC12 HTT-Q103 induced, ATP luminescence, 40 h; cytoprotection (ATP increase): at 56.4 µM (top of the series) unless noted", "outline": "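Cells were plated at 1500 per well in phenol red-free DMEM with 5% equine and 5% calf serum. Tebufenozide (100 nM final) and compounds were added, then ATPlite reagent, and luminescence was read.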", "values": [{"compound": "Cc1ccc(C(=O)N2CCSCC2)cc1", "Potency": "inconclusive: 0.794 µM [activator, single point]"}, {"compound": "COC(=O)[C@@]1(Cc2ccc(F)cc2)[C@H]2c3cc(C(=O)N4CCCC4)n(Cc4ccc(C(F)(F)F)nc4)c3C[C@H]2CN1C(=O)c1ccccc1", "Potency": "active: 10 µM"}, {"compound": "Cc1ccc2sc(C)[n+](CCO)c2c1", "Potency": "inconclusive: 25.1 µM [activator, single point]"}, {"compound": "CC12CC3(C)CC(C)(C1)CC(C(=O)NCc1ccccn1)(C2)C3", "Potency": "inconclusive: 5.62 µM [activator, single point]"}, {"compound": "O=C(C(=O)N1CCCC1CO)N1CCCC1CO", "note": "(centres undefined)", "cytoprotection (ATP increase)": "inactive: -16.1% [at 10 µM]"}, {"compound": "CS(=O)(=O)N(CC(=O)Nc1ccc(S(=O)(=O)N2CCCC2)cc1)c1cccc(F)c1", "cytoprotection (ATP increase)": "inactive: 18.7% [at 10 µM]"}, {"compound": "O=c1[nH]nnc2sc3c(c12)CCCC3", "cytoprotection (ATP increase)": "inactive: 6.72% [at 10 µM]"}, {"compound": "CC/C=C\\C/C=C\\C/C=C\\C/C=C\\C/C=C\\C/C=C\\CCC(=O)NC(C)C(=O)O", "note": "(centres undefined)", "Potency": "inconclusive: 0.501 µM [activator, partial curve, poor fit]"}, {"compound": "CC(=O)O[C@@H](C)C[N+](C)(C)C", "Potency": "inconclusive: 0.398 µM [activator, full curve, poor fit]"}, {"compound": "CCN(CC)CCCNC(=O)Cc1c(C(=O)O)n(C)c2ccccc12", "Potency": "inconclusive: 1 µM [activator, partial curve]"}, {"compound": "CCOc1cc(N2CCOCC2)c(OCC)cc1NC(=O)CN1C(=O)C2CC=CCC2C1=O", "note": "(centres undefined)", "Potency": "inconclusive: 31.6 µM [activator, single point]"}, {"compound": "Cc1ccccc1S(=O)(=O)Cc1ccc(C(=O)NC(C)c2ccc3c(c2)OCCO3)o1", "note": "(centres undefined)", "Potency": "inactive"}, {"compound": "O=C(O)CP(=O)(O)O", "Potency": "inconclusive: 0.562 µM [activator, full curve]"}, {"compound": "CCOC(=O)c1cc(CC)sc1NC(=O)COc1ccc2c(C)cc(=O)oc2c1", "Potency": "inconclusive: 1.26 µM [activator, single point]"}, {"compound": "Cc1ccccc1Sc1ncnc2onc(C)c12", "Potency": "inconclusive: 11.2 µM [activator, single point]"}, {"compound": "COc1ccc(CONc2ncnc3nonc23)cc1[N+](=O)[O-]", "Potency": "inconclusive: 17.8 µM [activator, single point]"}, {"compound": "Cc1cc(NC(=O)c2noc3c2CCc2ccccc2-3)no1", "Potency": "inactive"}, {"compound": "COCCNC(=O)COc1ncnc2scc(-c3ccc(F)cc3)c12", "Potency": "inconclusive: 2.82 µM [activator, single point]"}, {"compound": "Cc1cn([C@H]2C[C@H](N=[N+]=[N-])[C@H](CO)O2)c(=O)[nH]c1=O", "Potency": "inconclusive: 0.708 µM [activator, full curve, poor fit]"}]}]}
